The list shows only some results of the screen, not a fair sample: it is rich in T/C values a quarter to a half above the control, in often repeated tests (any T/C) and in doses without a T/C. Further doses and runs are listed elsewhere. T/C: endpoint of the treated group in % of that of the vehicle group. Some entries give survivors of the animals treated and no T/C: the source holds a T/C of zero for them, seemingly a mark for toxic or unscored doses. Some survivor counts are full or nearly so, which does not show that the dose was tolerated: the source hardly ever lists a survival T/C far under the control, and the zero likely stands for such cases as well. Counts of survivors are from the toxicity check (mostly the fifth day) where no day follows; animals may have died later. Schedule codes are those of the source, read here as Q, the interval in days (D) or hours (H), X, the number of doses. Some entries were tested several times; their values stand side by side, smallest first. Where survival is the endpoint, this PubChem deposit counts one and a half times the control or more as active, and values a quarter to a half above the control carry no call in these data; other NCI protocols may use other cut-offs. Marks such as (2×) count equal records among those shown.
Tested on: P388 leukemia ip, CD2F1 mice, survival T/C
Assay: NCI In Vivo Anticancer Drug Screen. Data for tumor model P388 Leukemia (intraperitoneal) in CD2F1 (CDF1) mice
Conditions: T/C endpoint: median survival time, higher T/C = longer survival
[1] = dose: 100.0 mg/kg/injection, schedule: Q01DX009 (ip), vehicle: saline with Tween-80
[2] = dose: 200.0 mg/kg/injection, schedule: Q01DX009 (ip), vehicle: saline with Tween-80
[3] = dose: 400.0 mg/kg/injection, schedule: Q01DX009 (ip), vehicle: saline with Tween-80
[4] = dose: 200.0 mg/kg/injection, schedule: Q01DX005 (ip), vehicle: saline with Tween-80
[5] = dose: 50.0 mg/kg/injection, schedule: Q01DX009 (ip), vehicle: Klucel (hydroxypropylcellulose) (HPC)
[6] = dose: 400.0 mg/kg/injection, schedule: Q01DX009 (ip), vehicle: saline
[7] = dose: 200.0 mg/kg/injection, schedule: Q01DX005 (ip), vehicle: saline
[8] = dose: 100.0 mg/kg/injection, schedule: Q01DX009 (ip), vehicle: Klucel (hydroxypropylcellulose) (HPC)
[9] = dose: 200.0 mg/kg/injection, schedule: Q01DX009 (ip), vehicle: Klucel (hydroxypropylcellulose) (HPC)
[10] = dose: 100.0 mg/kg/injection, schedule: Q01DX005 (ip), vehicle: saline

## CCCCCCC[As](C)(=O)O
dose: 50.0 mg/kg/injection, schedule: Q01DX001 (ip), vehicle: Klucel (hydroxypropylcellulose) (HPC)
  survivor count: 1 of 6 and 3 of 6
dose: 100.0 mg/kg/injection, schedule: Q01DX001 (ip), vehicle: Klucel (hydroxypropylcellulose) (HPC)
  survivor count: 1 of 6 and 2 of 6
dose: 200.0 mg/kg/injection, schedule: Q01DX001 (ip), vehicle: Klucel (hydroxypropylcellulose) (HPC)
  survivor count: 1 of 6 and 2 of 6

## CC(=O)CC(=O)Cc1oc2c(C(C)=O)c(O)c(C)c(O)c2c1C
[1]
  survivor count: 3 of 3
[2]
  survivor count: 6 of 6
[3]
  survivor count: 3 of 3 and 6 of 6

## O=C(O)c1cc(Br)ccc1OCc1cccc(Cl)c1
dose: 100.0 mg/kg/injection, schedule: Q04DX003 (ip), vehicle: saline with Tween-80
  survivor count: 5 of 6

## CCn1c2ccc(N)cc2c2c3ncc4cccn4c3ccc21
dose: 240.0 mg/kg/injection, schedule: Q01DX005 (ip), vehicle: saline with Tween-80
  survivor count: 6 of 6

## CCOc1nc(N)nc(C)c1N=Nc1ccc(Cl)cc1Cl
dose: 240.0 mg/kg/injection, schedule: Q01DX005 (ip), vehicle: Klucel + Tween-80
  survivor count: 0 of 6

## CCOC1(OCC)Oc2c(c3ccccc3c3ccccc23)/C1=C1\c2c(c3ccccc3c3ccccc23)OC1(OCC)OCC
[4]
  survivor count: 6 of 6

## C=C(C1OC2OC(C)(C)OC2C1OC)P(=O)(OC(C)C)OC(C)C (stereo not drawn)
dose: 400.0 mg/kg/injection, schedule: Q04DX002 (ip), vehicle: saline with Tween-80
  survivor count: 0 of 6

## CN(C/C=C/CN(C)C(=S)Nc1ccccc1)C(=S)Nc1ccccc1
dose: 12.5 mg/kg/injection, schedule: Q01DX009 (ip), vehicle: suspension in saline
  survivor count: 6 of 6
dose: 100.0 mg/kg/injection, schedule: Q01DX009 (ip), vehicle: suspension in saline
  survivor count: 5 of 6
dose: 200.0 mg/kg/injection, schedule: Q01DX009 (ip), vehicle: suspension in saline
  survivor count: 5 of 6

## Cc1ccc2c(=O)[nH]cnc2c1
[5]
  T/C: 128 % of control

## N=C(N)c1ccc(OCCCCCCOc2ccc(C(=N)N)cc2I)cc1
dose: 25.0 mg/kg/injection, schedule: Q01DX005 (ip), vehicle: Klucel (hydroxypropylcellulose) (HPC)
  survivor count: 3 of 6
dose: 50.0 mg/kg/injection, schedule: Q01DX005 (ip), vehicle: Klucel (hydroxypropylcellulose) (HPC)
  survivor count: 0 of 6 and 3 of 5
dose: 100.0 mg/kg/injection, schedule: Q01DX005 (ip), vehicle: Klucel (hydroxypropylcellulose) (HPC)
  survivor count: 0 of 5
dose: 200.0 mg/kg/injection, schedule: Q01DX005 (ip), vehicle: Klucel (hydroxypropylcellulose) (HPC)
  survivor count: 0 of 5

## CCCC(=O)N[C@H]1CCc2cc(OC)c(OC)c(OC)c2-c2ccc(SC)c(=O)cc21
dose: 0.19 mg/kg/injection, schedule: Q01DX009 (ip), vehicle: water
  T/C: 132 % of control
dose: 0.38 mg/kg/injection, schedule: Q01DX009 (ip), vehicle: water
  T/C: 138 % of control
dose: 1.5 mg/kg/injection, schedule: Q01DX009 (ip), vehicle: distilled water + Tween-80
  survivor count: 6 of 6
dose: 3.0 mg/kg/injection, schedule: Q01DX009 (ip), vehicle: distilled water + Tween-80
  survivor count: 0 of 6
dose: 3.0 mg/kg/injection, schedule: Q01DX009 (ip), vehicle: water
  survivor count: 4 of 6

## CCOc1c(Cc2ccccc2)c(=O)nc2c(-c3ccccc3)cncn12
dose: 120.0 mg/kg/injection, schedule: Q01DX005 (ip), vehicle: saline with Tween-80
  survivor count: 6 of 6

## CCOC(CNN)OCC
[6]
  survivor count: 0 of 6

## O=C(O)CCCNC(=O)Cc1ccccc1
[7]
  survivor count: 5 of 6

## O=C(c1ccccc1)N1C=CC(=Cc2ccccc2)C=C1
dose: 12.5 mg/kg/injection, schedule: Q01DX009 (ip), vehicle: Klucel (hydroxypropylcellulose) (HPC)
  survivor count: 3 of 6
dose: 25.0 mg/kg/injection, schedule: Q01DX009 (ip), vehicle: Klucel (hydroxypropylcellulose) (HPC)
  survivor count: 3 of 6
[5]
  survivor count: 1 of 6
[8]
  survivor count: 4 of 6
[9]
  survivor count: 0 of 6

## NC(N)=N/N=C1C=C/C(=N/N=C(N)N)C/1
dose: 400.0 mg/kg/injection, schedule: Q01DX001 (ip), vehicle: saline
  survivor count: 0 of 6

## CCOC(=O)C(Cc1ccc(N(CCCl)CCCl)cc1)NC(=O)C(CC(C)C)NC(C)=O (stereo not drawn)
[8]
  survivor count: 4 of 6
dose: 160.0 mg/kg/injection, schedule: Q04DX003 (ip), vehicle: other
  survivor count: 3 of 6
[9]
  survivor count: 4 of 6
dose: 400.0 mg/kg/injection, schedule: Q01DX009 (ip), vehicle: Klucel (hydroxypropylcellulose) (HPC)
  survivor count: 2 of 6

## CC1=C(/C=C/C(C)=N/NC(N)=S)C(C)(C)CCC1
dose: 25.0 mg/kg/injection, schedule: Q01DX009 (ip), vehicle: saline with Tween-80
  survivor count: 2 of 6

## CN(C)c1nc(=O)c2cc(Br)ccc2o1
dose: 240.0 mg/kg/injection, schedule: Q01DX005 (ip), vehicle: Klucel (hydroxypropylcellulose) (HPC)
  survivor count: 0 of 6

## Cc1cc2nc3[nH]c(=O)c4ccccc4c(=O)n3c2cc1C
dose: 400.0 mg/kg/injection, schedule: Q01DX001 (ip), vehicle: Klucel (hydroxypropylcellulose) (HPC)
  survivor count: 6 of 6

## N=C(N)N=Nc1cc(O)c(NN=C(N)N)cc1O
dose: 12.5 mg/kg/injection, schedule: Q01DX005 (ip), vehicle: saline with Tween-80
  survivor count: 3 of 6
dose: 25.0 mg/kg/injection, schedule: Q01DX005 (ip), vehicle: saline with Tween-80
  survivor count: 0 of 6
dose: 50.0 mg/kg/injection, schedule: Q01DX005 (ip), vehicle: saline with Tween-80
  survivor count: 0 of 6
dose: 100.0 mg/kg/injection, schedule: Q01DX005 (ip), vehicle: saline with Tween-80
  survivor count: 0 of 6
[4]
  survivor count: 0 of 6

## O=C1N(CCN2CCC3(CC2)OCCO3)CCN1c1cc(Cl)cc(Cl)c1
dose: 50.0 mg/kg/injection, schedule: Q01DX009 (ip), vehicle: water
  T/C: 113, 116 (2×), 130 % of control

## COCC1(O)C=CC(=O)O1 (stereo not drawn)
dose: 50.0 mg/kg/injection, schedule: Q01DX005 (ip), vehicle: saline
  T/C: 125 % of control
[10]
  T/C: 133 % of control
  survivor count: 3 of 6
[7]
  survivor count: 0 of 6 and 3 of 6

## COc1cccc2c1C(=O)c1c(O)c3c(c(O)c1C2=O)CC(=O)CC3OC1CC(NC(=O)C(F)(F)F)C(O)C(C)O1 (stereo not drawn)
dose: 25.0 mg/kg/injection, schedule: Q01DX009 (ip), vehicle: other
  survivor count: 6 of 6

## N#Cc1ncc(C=P(c2ccccc2)(c2ccccc2)c2ccccc2)n(O)c1=N
[2]
  survivor count: 6 of 6

## O=S(=O)(O)OOS(=O)(=O)O
[9]
  survivor count: 6 of 6

## CC(C)C(O)C1CCOS1(=O)=O (stereo not drawn)
dose: 400.0 mg/kg/injection, schedule: Q04DX003 (ip), vehicle: saline
  survivor count: 2 of 6

## CC(Nc1ccc(S(=O)(=O)Nc2ncccn2)cc1)c1ccc2cccnc2c1O (stereo not drawn)
dose: 400.0 mg/kg/injection, schedule: Q01DX001 (ip), vehicle: saline with Tween-80
  survivor count: 0 of 6

## Nc1cc(Cl)c(Cl)c(Cl)c1N
dose: 100.0 mg/kg/injection, schedule: Q01DX009 (ip), vehicle: saline
  survivor count: 6 of 6
[3]
  survivor count: 1 of 6
[6]
  survivor count: 3 of 6 and 4 of 6
dose: 600.0 mg/kg/injection, schedule: Q01DX009 (ip), vehicle: saline
  survivor count: 0 of 6

## CCCCN=C(N)N/N=C(\C)c1ccc2c(c1)Cc1ccccc1-2
dose: 50.0 mg/kg/injection, schedule: Q04DX002 (ip), vehicle: saline with Tween-80
  survivor count: 3 of 6
dose: 100.0 mg/kg/injection, schedule: Q04DX002 (ip), vehicle: saline with Tween-80
  survivor count: 1 of 6

## CCCCCCCCCCCCCCCC(=O)N1CCN(C)CC1
dose: 50.0 mg/kg/injection, schedule: Q01DX009 (ip), vehicle: saline with Tween-80
  survivor count: 3 of 6
[1]
  survivor count: 5 of 6

From PubChem BioAssay AID330 (DTP/NCI, 2004)
